Taken from: PubChem BioAssay AID686943 (Drosophila RNAi Screening Center, 2013)

Test: 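Knockdowns that increase or decrease active ERK after insulin receptor stimulation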 (primary screen)
Cell system: Drosophila S2R+ haemocyte-like cells expressing YFP-tagged ERK (Rolled)
Reagents: long dsRNA against Drosophila genes
Challenge: insulin stimulation versus unstimulated cells; dose and duration not given
Measured: 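Per-plate z-scores of phospho-ERK immunostaining normalised to YFP-tagged ERK, measured with and without insulin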
Direction: replicate 1, z-score of dpERK with insulin and replicate 2, z-score of dpERK with insulin: higher = more active ERK per ERK-YFP after insulin; replicate 1, z-score of dpERK under basal conditions: higher = more basal active ERK per ERK-YFP; replicate 1, z-score of ERK-YFP with insulin: higher = more YFP-tagged ERK signal
The deposit covers about 23,000 reagents; below is an unselected part of those that have a named target and a result. 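Extra replicates exist only for a retested subset of genes; insulin dose and duration not given; both raised and lowered dpERK matter.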 A plus sign joins genes that one reagent is predicted to hit. Not given: the amount of reagent, the time to read-out.

Target gene | DRSC id | replicate 1, z-score of dpERK with insulin | replicate 2, z-score of dpERK with insulin | replicate 1, z-score of dpERK under basal conditions | replicate 1, z-score of ERK-YFP with insulin
CheB38c (Chemosensory protein B 38c) | DRSC02389 | -0.64 | -0.6 | -0.7 | -0.96
CG10747 | DRSC02104 | 0.37 | 0.52 | -0.27 | -0.02
CG10445 | DRSC14247 | 0.06 | -0.35 | 0.09 | 0.28
CG18130 | DRSC19790 | 0.05 | 0.02 | -0.16 | 0.36
cid (centromere identifier) | DRSC05429 | 0.48 | 0 | 0.72 | 0.14
cid (centromere identifier) | DRSC07592 | 0.11 | -0.36 | 0.73 | 0.48
snRNA:U4atac (small nuclear RNA U4atac) | DRSC12055 | 0.07 | 0.23 | 0.4 | 0.56
CG14983 | DRSC08441 | 1.78 | 1.13 | -0.29 | -0.33
tgo (tango) | DRSC17077 | 1.88 | 0.88 | 0.31 | -0.95
HP4 (Heterochromatin protein 4) | DRSC10958 | 0.04 | -0.05 | 0.59 | -0.09
CG4945 | DRSC06904 | 0.27 | 0.27 | 0.03 | -0.25
PolH (DNA polymerase eta) | DRSC11800 | -0.07 | 0.06 | -0.18 | 0.43
HisCl1 (Histamine-gated chloride channel subunit 1) | DRSC14945 | -0.08 | -0.17 | -0.67 | 0.41
CG31677 | DRSC22023 | -0.45 | -0.3 | -0.54 | 0.5
CG31100 | DRSC14453 | 0.13 | -0.19 | -0.66 | 0.82
CG31100 | DRSC14455 | 0.14 | -0.5 | 0.77 | -0.71
CG9733 | DRSC16549 | -0.55 | 0.21 | 0.41 | -0.19
Zasp52 (Z band alternatively spliced PDZ-motif protein 52) | DRSC06269 | -4.14 | -3.74 | -2.17 | -0.37
Zasp52 (Z band alternatively spliced PDZ-motif protein 52) | DRSC07121 | -0.43 | -0.01 | -0.22 | 0.47
sima (similar) | DRSC17055 | 0.59 | -2.35 | -1.67 | 2.54
mRpL28 (mitochondrial ribosomal protein L28) | DRSC02724 | -0.04 | 0.47 | -0.06 | 1.33
nAChRalpha6 (nicotinic Acetylcholine Receptor alpha6) | DRSC01096 | -0.45 | -0.51 | -0.02 | -0.42
nAChRalpha6 (nicotinic Acetylcholine Receptor alpha6) | DRSC01098 | -1.06 | -0.22 | -1.49 | 0.24
nAChRalpha6 (nicotinic Acetylcholine Receptor alpha6) | DRSC02738 | -0.94 | -0.06 | 0.89 | 0.53
Osi4 (Osiris 4) | DRSC12134 | -0.07 | -0.17 | 0.61 | 0.01
tin (tinman) | DRSC17083 | 0.88 | 0.63 | 1.03 | -0.15
tin (tinman) | DRSC22853 | -0.86 | -1.14 | -2.65 | -0.99
7B2 | DRSC11991 | 1.29 | -0.16 | -0.33 | -0.74
mRpS34 (mitochondrial ribosomal protein S34) | DRSC09918 | 1.49 | 0.43 | -0.37 | 0.66
CG13630 | DRSC14631 | -0.41 | 0.07 | -0.66 | 0.9
CG31388 | DRSC15254 | 0.01 | 0.64 | -0.2 | -0.05
CG42537 | DRSC12519 | 0.13 | 0.04 | -0.16 | 0.61
inaF-B + inaF-D + inaF-C + 1 more | DRSC20342 | 0.29 | 0.89 | 0 | 0.15
eater | DRSC15969 | 0.19 | 0.44 | 0.14 | -0.14
eater | DRSC22254 | 0.8 | 0.6 | 0.05 | 0.41
CG4835 | DRSC10452 | -2.39 | -0.03 | -0.07 | -0.27
bol (boule) | DRSC08964 | 0.3 | 0.21 | 0.19 | 0.09
bol (boule) | DRSC10444 | 1.18 | -0.08 | -0.54 | -0.5
bol (boule) | DRSC11329 | -1.18 | -0.5 | -0.05 | -0.5
Or85c (Odorant receptor 85c) | DRSC16766 | -0.04 | -0.16 | 0.39 | 0.53
tous (testes of unusual size) | DRSC04464 | 0.99 | 0.9 | -0.36 | -0.2
Cdlc2 (Cytoplasmic dynein light chain 2) | DRSC00743 | -0.89 | -1.05 | -0.23 | 1.77
Nedd8 (Nedd8 ubiquitin like modifier) | DRSC02092 | 0.97 | 0.67 | -0.2 | 0.02
sunn | DRSC21659 | 0.04 | -0.56 | -0.45 | -0.41
GM130 (Golgi matrix protein 130 kD) | DRSC04617 | -0.43 | 0.84 | 0.1 | 0.29
CG15657 | DRSC04248 | 0.21 | 0.03 | -0.06 | -0.5
bond (james bond) | DRSC16135 | 0.06 | 0.15 | 0.02 | -0.1
ATPsynGL (ATP synthase, subunit G-like) | DRSC03027 | 0.14 | 0.16 | -0.18 | -1.1
CG7239 | DRSC03038 | -0.58 | -1.61 | -1.01 | -2.44
Nup98-96 (Nucleoporin 98-96kD) | DRSC14209 | -0.54 | 1.14 | 3.82 | -3.69
Nup98-96 (Nucleoporin 98-96kD) | DRSC14210 | 0.91 | 0.12 | -0.72 | -5.44
CG11470 | DRSC14313 | 0.29 | -1.51 | -0.84 | -0.06
Gr36c (Gustatory receptor 36c) | DRSC02437 | 0.34 | -0.11 | 1.35 | -0.73
mbm (mushroom body miniature) | DRSC00319 | -0.28 | -0.03 | 0.54 | 0.52
CG3597 | DRSC00617 | -0.41 | -1.12 | -0.26 | -0.03
CG13551 | DRSC21847 | 0.42 | 0.78 | -1.26 | -0.22
Klp31E (Kinesin-like protein at 31E) | DRSC03354 | 0.6 | 0.27 | -0.29 | -0.02

Individual results from the list:
bol (boule) [DRSC08964], replicate 1, z-score of ERK-YFP with insulin: 0.09
Value for PolH (DNA polymerase eta) [DRSC11800] in “replicate 1, z-score of dpERK with insulin”: -0.07
For “replicate 1, z-score of dpERK under basal conditions”, cid (centromere identifier) [DRSC05429] has 0.72
tin (tinman) [DRSC17083], replicate 1, z-score of dpERK with insulin → 0.88
CG3597 [DRSC00617], replicate 2, z-score of dpERK with insulin → -1.12
